## Results of single-concentration screens

A: 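Whole-parasite assay of Trypanosoma brucei over 72 hours; the read-out is not stated. Compounds at 30 µM. Higher reads as stronger inhibition (inferred: compounds with an IC50 in retests scored well above the rest). Values scatter widely below zero; nearly all retest evidence comes from the higher of the two concentrations used. Size under these conditions: about 64,000 compounds, about 940 of them at 50% or above in at least one test.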
B: 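Assay of Toxoplasma gondii numbers, read through their beta-galactosidase reporter with a colour substrate. Compounds at 10 µM. The record gives no direction; the compounds picked for IC50 retests had high values, so higher reads as fewer parasites. Of about 67,000 compounds tested this way, about 260 (0.38%) reached 50% or more in at least one test.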

Values are the deposited “Percent Effect”, in %.
How 0% and 100% were set is not recorded. Most values in the screen are low, and negative values occur.
This is an unselected part of the compounds tested.
A dash means the value is not listed here; it may have been measured.

compound,A,B
CC(C)(C)c1nc(CN2CCC3(CCCO3)CCC2=O)no1 (centres unmarked),-6.83%,3.144%
Cc1ccc(N2CCC3(CC2)CC(OCC(C)C)C3)nn1.O=C(O)C(F)(F)F,-32.74%,-4.032%
Cc1cccc(C(C(=O)N(C)CCc2cn[nH]c2)N(C)C)c1 (centres unmarked),-19.32%,-
CC(C)(C)c1cn(CC2CCCN(c3cnc4ccccc4n3)C2)nn1 (centres unmarked),11.38%,1.903%
CSCCC(NC(N)=O)C(=O)NCc1cnn(-c2ccccc2)c1 (centres unmarked),-44.74%,1.908%
CCn1ccnc1CN(C)C(C(=O)O)c1ccc(C(C)(C)C#N)cc1 (centres unmarked),1.644%,-4.673%
O=C(Cc1ccccn1)N1CCC2(CC1)CN(c1ccccn1)CCO2,-16.36%,-4.304%
COc1cccc(-c2n[nH]cc2CNCC2CCS(=O)(=O)C2)c1 (centres unmarked),-30.59%,0%
Cn1ccnc1CN1CCCN(C(=O)c2ccc3[nH]nnc3c2)CC1,-12.74%,0.4577%
CC(C)(C)c1ccc(C2(C(=O)NCCS(N)(=O)=O)CC2)cc1,-8.478%,9.848%
O=C(CS(=O)(=O)Cc1cc(Cl)c2c(c1)OCO2)N1CCCC1,-16.6%,-19.76%
CCCn1cc(NC(=O)c2ccc(NC(=O)NC3CC3)cc2)ccc1=O,12.66%,2.841%
Cc1cc(C(=O)N2CCCC(n3ccnc3C)C2)c(C)s1 (centres unmarked),19.47%,1.559%
NC(=O)CC1CCN(C(=O)NCc2ccc(-c3ccn[nH]3)cc2)CC1,-13.22%,-7.704%
COc1ccccc1OC1CCN(Cc2ccc(N(C)C)nc2)CC1,16.29%,-5.653%
CSc1cccc(CNC(=O)C2CC(=O)N(C3CC3)C2)c1 (centres unmarked),6.723%,2.261%
Cc1n[nH]c(C)c1C1COCCN1C(=O)c1n[nH]c2ccccc12 (centres unmarked),-4.204%,9.859%
c1cnc(N2CCC(c3n[nH]c4ncccc34)C2)nc1 (centres unmarked),-10.94%,15.94%
CCc1cc(O)nc(C2CCCN2C(=O)c2cc(CC)on2)n1 (centres unmarked),-0.5301%,2.673%
CC(=O)N1CCCC1c1nnn2cc(NCc3cccnc3)ccc12.O=C(O)C(F)(F)F.O=C(O)C(F)(F)F (centres unmarked),-28.1%,-3.047%
CS(=O)(=O)CCNC(=O)Nc1ccc(Cl)cc1-n1cccc1,-47.57%,4.629%
CCCc1noc(CCC(=O)N2CCCCC2Cn2cc(C)cn2)n1 (centres unmarked),10.34%,-12.85%
COc1cc(S(=O)(=O)N2CCCc3ccccc32)cc(C(=O)O)c1OC,-0.8535%,8.193%
Cc1nn(C)c(N(C)C)c1CNCc1ccnc(N2CCCC2)c1,18.1%,0.753%
CS(=O)(=O)NC1CCCN(C(=O)NCc2cc[nH]n2)C1 (centres unmarked),2.495%,2.658%
COCCN1CCn2cc(CNC(=O)c3cnn(C)c3)nc2C1.O=C(O)C(F)(F)F,-33.8%,9.393%
COc1ncccc1CNC(=O)c1c(C)oc(C)c1C,-,-2.319%
[H][C@@]12CNC[C@]1([H])N(C(=O)C1CCCC1)CCO2,-49.51%,4.483%
COc1ccccc1C(NC(=O)NC1CC1)c1noc(C)n1 (centres unmarked),8.174%,7.683%
COC(=O)c1cccc2nc([C@H]3CCN(C4CCN(C)CC4)C3)oc12,-5.746%,-6.42%
O=C1CSc2ccc(C(=O)N3CCCC(n4cccn4)C3)cc2N1 (centres unmarked),-19.96%,-7.169%
CSCc1noc(C2CCC(=O)N(CCCN3CCCC3=O)C2)n1 (centres unmarked),2.053%,8.439%
O=C(O)C(F)(F)F.O=C(O)C(F)(F)F.[H][C@]12OCCC[C@]1([H])N(C(=O)c1cccc(C)n1)C[C@H]2OCc1cccnc1,11.89%,-4.662%
C[C@@H]1CN(C(=O)Nc2cccc(OC(F)F)c2)CC(C(N)=O)O1 (some centres unmarked),-15.63%,0.6944%
CCCC(=O)N1CCC2(CC1)CC(NC(C)=O)c1ccccc1O2 (centres unmarked),-10.43%,0.6336%
COc1cccn(CC(=O)N2CCCC3(CCCCC3)C2)c1=O,8.728%,16.31%
Cc1cccc(C(C(=O)NCc2nc(-c3ncccn3)no2)N(C)C)c1 (centres unmarked),-55.67%,-1.402%
COCc1nc(CN2CCOC(CNc3cccnn3)C2)cs1 (centres unmarked),-9.788%,-11.24%
Cc1cnc(NCC(C)(C)N2CCOCC2)nc1,-28.47%,-13.84%
CNc1nc(C(=O)N2CCCC(CO)(CCCOC)C2)cs1 (centres unmarked),-26.2%,-5.398%
O=C(NCc1nnc2n1CCCCC2)N(Cc1ccccn1)C1CC1,-35.92%,1.264%
CC(C)c1nc2n(n1)CC(NCc1ncc(-c3ccccc3)o1)CC2 (centres unmarked),-4.396%,2.304%
O=C(O)C(F)(F)F.[H][C@@]12CN(Cc3ccc(F)cc3)C[C@H](C(=O)N3CCCO3)[C@]1([H])CCO2,3.856%,0.4926%
CCOCCCC(=O)NCc1cn2cc(Br)ccc2n1,54.92%,1.86%
NC(=O)Cn1c(SCc2noc(-c3ccsc3)n2)nnc1C1CC1,-7.697%,1.475%
O=C(c1ccc(NC2CC2)nc1)N1CCCC(n2ccnc2)C1 (centres unmarked),0.3706%,11.54%
CCN(CC)C(=O)c1cnc(Sc2nccn2C)c(Cl)c1,2.874%,-11.67%
CN(Cc1cnn(C)c1)C(=O)c1ccc(=O)n(Cc2ccccc2)n1,-4.486%,-18.45%
COCCn1cc(CC(=O)Nc2c(C)nn(C)c2C)c2ccccc21,-,13.16%
O=C1CCC2(CCN(Cc3cscn3)CC2)CN1CC1CCCO1 (centres unmarked),-6.893%,-4.956%
COc1ccc(-n2cc(CNC(=O)c3cc[nH]n3)nn2)cc1,-,-7.976%
C[C@]1(O)CN(Cc2cccc(C(=O)O)c2)CC[C@@H]1Oc1cccc(F)c1,8.658%,-48.06%
COC(=O)CNC(=O)c1scnc1C,-2.753%,7.594%
CN(CC(=O)N1CCCCC1c1nc(C(C)(C)C)cs1)C1CC1 (centres unmarked),-,22.27%
COc1cc(F)c(S(=O)(=O)NCc2ccnc(N(C)C)n2)cc1OC,-4.624%,11.49%
[H][C@@]12OCCN(S(=O)(=O)c3cn(C)cn3)[C@@]1([H])CC[C@@H]2OCC1CC1,-19.45%,-0.6999%
Cc1cc(C)n(Cc2ccc(C(=O)NCCN3CCOCC3)cc2)n1,12.58%,-9.654%
O=C(O)C(F)(F)F.O=C1COC2(CCN(Cc3ccco3)CC2)CN1CCn1cccn1,-,-16.96%
O=C(NCc1ccc(F)cc1)C1CCCN(c2ccc3nncn3n2)C1 (centres unmarked),-49.23%,-0.1138%
CCCN1CCN(C(=O)c2ccn(COc3ccc(F)cc3)n2)CC1,-7.777%,-0.06734%
COc1ccc(C(C(=O)O)N2CCCN(C3CCCC3)CC2)cc1OC (centres unmarked),-15.56%,1.116%
CCC1CCCCCN1C(=O)c1coc(S(=O)(=O)N(C)C)c1 (centres unmarked),-8.261%,-3.092%
CCCc1nc(C(C)(C)NC(=O)C2CC(=O)N(CC3CC3)C2)no1 (centres unmarked),-31.49%,1.077%
COCC(=O)N1CCCC2(CCN(Cc3cccc(C)n3)C2=O)C1.O=C(O)C(F)(F)F (centres unmarked),-30.31%,3.273%
CCn1c(C2CCCN(Cc3cc(F)ccc3OC)C2)nn(C)c1=O (centres unmarked),-25.72%,-2.957%
CC(C)CN1CCCC12CCN(c1nncs1)C2.O=C(O)C(F)(F)F (centres unmarked),-37.66%,14.9%
Cn1ccnc1CN1CCC2(CC(=O)N(c3cccc(F)c3)C2)C1.O=C(O)C(F)(F)F (centres unmarked),-12.31%,-4.767%
CCc1cnc(C)nc1NC1CC(=O)N(CC)C1 (centres unmarked),-25.82%,-4.956%
CN1CC(Nc2nc3c(cnn3-c3ccccc3)c(=O)[nH]2)CCC1=O (centres unmarked),-42.62%,-5.166%
Cc1noc(C)c1-c1ccc(C2CCCN2C(=O)c2cccnc2)nc1 (centres unmarked),-20.95%,-7.106%
Cc1ccc(C(=O)NC2CCN(C(=O)NCc3ccccn3)CC2)o1,-,15.49%

5 of the entries, repeated:

With COc1ncccc1CNC(=O)c1c(C)oc(C)c1C the screen gave B: -2.319%.
With CN(CC(=O)N1CCCCC1c1nc(C(C)(C)C)cs1)C1CC1 (centres unmarked) the screen gave B: 22.27%.
With CC(C)(C)c1nc(CN2CCC3(CCCO3)CCC2=O)no1 (centres unmarked) the screen gave A: -6.83%; B: 3.144%.
With O=C(Cc1ccccn1)N1CCC2(CC1)CN(c1ccccn1)CCO2 the screen gave A: -16.36%; B: -4.304%.
With Cc1cccc(C(C(=O)N(C)CCc2cn[nH]c2)N(C)C)c1 (centres unmarked) the screen gave A: -19.32%.

Measurements from “University of Dundee, Small-Polar-MMV Screening Library” (2021), ChEMBL document CHEMBL3988442.